Data taken from ChEMBL document CHEMBL3988442, “University of Dundee, Small-Polar-MMV Screening Library” (2021).

Amino acid sequences for entries named in this document (tags omitted). Residues count along the entry.
UniProt P9WFT3, whole entry: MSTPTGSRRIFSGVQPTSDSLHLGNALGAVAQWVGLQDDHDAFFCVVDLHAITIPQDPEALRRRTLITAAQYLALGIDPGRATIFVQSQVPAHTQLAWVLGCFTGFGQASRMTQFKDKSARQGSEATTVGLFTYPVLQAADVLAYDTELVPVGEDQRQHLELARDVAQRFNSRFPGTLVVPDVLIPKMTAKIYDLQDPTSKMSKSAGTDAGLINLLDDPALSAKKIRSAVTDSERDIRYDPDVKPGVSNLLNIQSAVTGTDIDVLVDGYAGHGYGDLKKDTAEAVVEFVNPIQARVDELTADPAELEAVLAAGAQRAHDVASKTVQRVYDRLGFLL
UniProt I6X8D2, whole entry: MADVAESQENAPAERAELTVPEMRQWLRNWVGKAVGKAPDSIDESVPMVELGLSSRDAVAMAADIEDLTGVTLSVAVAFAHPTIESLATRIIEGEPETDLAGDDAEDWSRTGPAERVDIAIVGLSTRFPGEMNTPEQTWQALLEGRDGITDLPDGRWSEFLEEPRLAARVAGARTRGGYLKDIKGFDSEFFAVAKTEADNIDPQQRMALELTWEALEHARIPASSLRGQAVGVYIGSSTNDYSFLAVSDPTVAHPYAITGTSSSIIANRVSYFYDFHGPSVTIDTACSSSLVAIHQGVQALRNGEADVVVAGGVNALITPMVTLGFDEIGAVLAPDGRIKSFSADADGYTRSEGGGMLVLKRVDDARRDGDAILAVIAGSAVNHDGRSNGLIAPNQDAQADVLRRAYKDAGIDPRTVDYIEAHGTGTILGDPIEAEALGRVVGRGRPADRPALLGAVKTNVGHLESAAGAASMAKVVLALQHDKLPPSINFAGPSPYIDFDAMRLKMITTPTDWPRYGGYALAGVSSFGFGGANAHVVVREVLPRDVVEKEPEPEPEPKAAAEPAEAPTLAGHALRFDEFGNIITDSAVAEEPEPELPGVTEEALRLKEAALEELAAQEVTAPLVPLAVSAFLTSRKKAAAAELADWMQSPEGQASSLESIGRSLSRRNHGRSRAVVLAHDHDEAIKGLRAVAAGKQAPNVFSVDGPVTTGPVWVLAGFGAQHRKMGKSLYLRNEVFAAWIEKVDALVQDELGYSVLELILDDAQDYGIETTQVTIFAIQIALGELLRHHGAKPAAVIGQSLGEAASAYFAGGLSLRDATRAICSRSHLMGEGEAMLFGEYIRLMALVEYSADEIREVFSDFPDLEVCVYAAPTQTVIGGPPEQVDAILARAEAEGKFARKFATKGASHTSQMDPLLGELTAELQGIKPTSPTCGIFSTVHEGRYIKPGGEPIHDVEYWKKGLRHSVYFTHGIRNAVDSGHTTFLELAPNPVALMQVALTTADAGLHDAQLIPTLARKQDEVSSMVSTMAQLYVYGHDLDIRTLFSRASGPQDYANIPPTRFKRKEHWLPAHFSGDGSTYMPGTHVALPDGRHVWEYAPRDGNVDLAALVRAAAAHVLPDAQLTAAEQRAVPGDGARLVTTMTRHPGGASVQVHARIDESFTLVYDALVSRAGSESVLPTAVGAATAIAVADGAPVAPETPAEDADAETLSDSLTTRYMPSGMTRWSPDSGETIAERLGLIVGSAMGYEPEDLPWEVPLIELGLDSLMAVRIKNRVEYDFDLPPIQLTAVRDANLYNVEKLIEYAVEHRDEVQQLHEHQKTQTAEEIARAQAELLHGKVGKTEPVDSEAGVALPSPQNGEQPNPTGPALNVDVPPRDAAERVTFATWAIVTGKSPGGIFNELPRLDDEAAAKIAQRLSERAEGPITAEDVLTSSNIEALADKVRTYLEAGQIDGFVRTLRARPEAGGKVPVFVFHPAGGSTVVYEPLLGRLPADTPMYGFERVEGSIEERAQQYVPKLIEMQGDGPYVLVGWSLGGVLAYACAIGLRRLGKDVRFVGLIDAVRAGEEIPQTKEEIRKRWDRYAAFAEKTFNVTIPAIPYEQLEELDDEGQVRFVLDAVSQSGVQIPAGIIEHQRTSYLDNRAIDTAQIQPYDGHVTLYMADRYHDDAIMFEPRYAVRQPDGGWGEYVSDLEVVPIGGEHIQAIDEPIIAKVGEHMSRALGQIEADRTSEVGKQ
UniProt Q4DA54, 1-478: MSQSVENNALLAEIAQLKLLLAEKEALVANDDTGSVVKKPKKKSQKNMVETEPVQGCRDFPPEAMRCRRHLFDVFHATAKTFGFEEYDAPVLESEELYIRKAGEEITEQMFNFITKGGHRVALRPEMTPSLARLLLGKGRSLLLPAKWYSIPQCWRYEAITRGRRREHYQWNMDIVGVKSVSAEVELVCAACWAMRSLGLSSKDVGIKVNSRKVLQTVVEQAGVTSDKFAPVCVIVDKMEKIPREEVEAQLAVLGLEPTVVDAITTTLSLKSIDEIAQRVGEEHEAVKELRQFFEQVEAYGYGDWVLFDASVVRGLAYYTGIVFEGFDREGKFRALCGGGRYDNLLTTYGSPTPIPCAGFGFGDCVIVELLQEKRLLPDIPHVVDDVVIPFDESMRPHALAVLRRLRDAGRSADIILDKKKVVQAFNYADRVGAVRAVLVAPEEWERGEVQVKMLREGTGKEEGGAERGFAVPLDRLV

The filed quantity is “Percent Effect” (%).
How 0% and 100% were set is not recorded. Most values in the screen are low, and negative values occur.
Compounds were drawn at random from those tested, without regard to their results.
A dash means the value is not listed here; it may have been measured.

MtTrpRS: 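Enzyme assay of tryptophanyl-tRNA synthetase; the read-out is not stated. Target: Tryptophan-tRNA ligase, Mycobacterium tuberculosis (UniProt P9WFT3). Compounds at 10 µM. Higher most likely means stronger inhibition; the record gives no direction and few retests gave an IC50. Size under these conditions: about 65,000 compounds, about 64 of them at 50% or above in at least one test.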
Leishmania in macrophages: 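Cell assay of Leishmania donovani living inside macrophages; the read-out is not stated. Compounds at 30 µM. Higher reads as stronger inhibition (inferred: compounds with an IC50 in retests scored well above the rest). About 69,000 compounds were tested under these conditions; 1.5% (about 1,000) showed 50% or more at least once.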
Pks13 thioesterase: 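Enzyme assay of the thioesterase domain of polyketide synthase 13; the read-out is not stated. Target: Polyketide synthase Pks13, Mycobacterium tuberculosis (UniProt I6X8D2). Compounds at 30 µM. The record gives no direction; the compounds picked for IC50 retests had high values, so higher reads as stronger inhibition. About 67,000 compounds were tested under these conditions; 0.46% (about 300) showed 50% or more at least once.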
TcHisRS: 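Histidine-tRNA ligase, Trypanosoma cruzi CL Brener (UniProt Q4DA54). Enzyme assay of histidyl-tRNA synthetase; the read-out is not stated. Tested at 30 µM. Higher reads as stronger inhibition (inferred: compounds with an IC50 in retests scored well above the rest). Size under these conditions: about 69,000 compounds, about 31 of them at 50% or above in at least one test.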

SMILES	MtTrpRS	Leishmania in macrophages	Pks13 thioesterase	TcHisRS
CN(CCCc1nccn1C)C(=O)C1CCN(C(=O)C2CCC2)CC1	1.025	16.71	-20.51	5.366
CC(C)COC1CCN(C(=O)c2ccc(C(F)(F)F)[nH]c2=O)CC1	-0.6606	26.42	-14.6	0.5128
CC(C)c1nnc2n1CCN(C(=O)c1ccc3c(c1)CCC3)C2	-1.168	-40.18	-10.66	1.153
CNC(=O)c1noc(Cn2ncc3ccccc3c2=O)n1	-3.33	-13.66	6.163	7.006
CCn1nc2c(cc1=O)CN(CCOc1cccc(C#N)c1)CC2	2.624	15.61	-17.54	4.04
CCc1cnc(CN2CCOC(c3nc(C)n[nH]3)C2)o1 (centres undefined)	-0.2469	6.622	-23.08	5.952
COc1ccc(N2CCC(N(C)C(=O)Nc3ccncc3)CC2)cc1	2.323	8.633	-6.441	13.13
Cc1nn(C)cc1-c1cc(C(=O)N2CCc3ncc(Cl)cc3C2)no1	-4.285	19.36	4.47	8.333
CCCN(CCC)c1nc(N)nc(-c2cc(Cl)ccc2OC)n1	3.67	30.84	-8.266	21.65
CC(=O)NCC(=O)N1CCn2cc(CN3CCCCC3)nc2C1.O=C(O)C(F)(F)F	-	11.44	-	-
Fc1cnc(N2CC[C@@H](N3CCOCC3)[C@@H]2Cc2ccncc2)nc1.O=C(O)C(F)(F)F.O=C(O)C(F)(F)F	-	-21.04	-	-
Cc1cccc(C)c1C(=O)N1C[C@@H](CN2CCOCC2)[C@@H](CO)C1	-1.522	-30.66	-2.154	0.5025
CN(CCOc1cccc(CNC(=O)C2CC2)c1)C1CCOCC1	-6.424	38.58	-2.381	-1.667
COCc1ccccc1CNc1nnc(C)c(C)c1C#N	1.458	-8.127	-3.177	-0.3831
Fc1ccc2[nH]c3c(c2c1)CCN1C(c2ccncc2)N2CCC31CC2 (centres undefined)	-6.078	86.05	6.454	0.7752
CC(NC(=O)c1ccc(F)cc1F)c1cnn(C)c1 (centres undefined)	-3.614	11.9	1.348	1.327
[H][C@]12CC[C@]([H])(CN(Cc3c(C)noc3C)C1)N(Cc1cccc(C=C)c1)C2	-	23.92	-	-
CN(CCOc1ccc(C#N)cc1)CC1CCS(=O)(=O)C1 (centres undefined)	0.3564	-0.5828	-12.19	1.739
Cc1cc(C)c(CNC(=O)N(C)Cc2ccc3c(c2)OCO3)c(=O)[nH]1	0.8839	-18.07	-11.84	6.358
Cc1noc(C(C)N2CCN(Cc3nnc(C4CC4)o3)CC2)n1 (centres undefined)	-6.257	3.413	-8.373	0.565
O=C(N1CCCC(n2cncn2)C1)C1(c2cccc(F)c2)CCC1 (centres undefined)	-6.236	2.88	-5.351	-1.156
COc1cccc(-n2nnc(C(=O)N3CCCC3)c2C)c1	-0.2227	23.97	-14.37	1.527
CN(C)C[C@H]1OC[C@@H]2CCN(C(=O)c3ccco3)C[C@@H]21	0.3353	-	-4.957	3.39
Cc1cccc(C2CCCCCN2C(=O)c2cn(CC(N)=O)nn2)c1 (centres undefined)	0.8972	1.777	-	8.247
O=C(O)c1cncc(Cc2ccc(F)cc2)c1	-3.669	11.12	3.647	62.78
CC(=O)c1cccc(NC(=O)NCCCc2nc(C(C)C)no2)c1	-2.168	27.35	-6.574	6.637
O=C(CCn1cccn1)NCC(c1cccs1)N1CCCC1 (centres undefined)	-6.033	-5.644	8.496	8.046
[H][C@@]12CS(=O)(=O)C[C@]1([H])N(Cc1cc(F)cc(F)c1)CCN2CCO	-	22.82	-	-
CC1COCCN1C(=O)c1ccc(=O)n(CCOc2ccccc2)n1 (centres undefined)	-0.6849	12.31	-9.737	8.861
[H][C@@]12CN(C(=O)N(C)C)C[C@]1([H])C(=O)NC21CCN(C(=O)COC)CC1	-	3.24	-	-
CC(C)OCCN(C)CC(c1cccs1)N1CCOCC1 (centres undefined)	4.124	-11.57	0.8132	2.02
CN(C)S(=O)(=O)N1CC[C@]2(O)CCN(CCc3cccc(F)c3)C[C@@H]2C1	2.667	-	-26.05	4.972
O=C(NCc1cccnc1-n1cncn1)c1cc(Cl)ccn1	3.634	-0.0398	6.815	10.05
O=C(O)C(F)(F)F.O=C(O)C(F)(F)F.[H][C@@]12CCN(Cc3cccc(C)n3)[C@]1([H])CC[C@@H](C(=O)Nc1cnccn1)O2	-	32.33	-	-
CC(C(=O)N1CCCN(Cc2cnn(C)c2)CC1)n1ccnc1 (centres undefined)	21.78	0.5583	-18.73	5.325
O=C(CNCc1ccccc1Cn1cccn1)Nc1cnccn1	-7.987	10.2	-19.74	8.458
COCc1cnc2n1CCN(S(=O)(=O)N(C)C)C2C (centres undefined)	-2.05	18.95	-27.31	2.532
CCn1cc(S(=O)(=O)N(C)Cc2c(Br)cnn2CC)c(C)n1	-1.917	6.973	-2.813	7.527
O=C(NCCc1ccccc1F)NCC(O)c1cccc(F)c1 (centres undefined)	0.8992	19.34	-7.376	3.725
O=c1n(CCNCc2cccc3ccccc23)nc2ccccn12	1.161	37.73	-9.702	8.081
COC(=O)CNC(=O)CSCc1nc(O)c2cc(C)sc2n1	4.499	-16.65	12.63	3.409
CNC(=O)CCc1cc(C)nc(C2CCN(c3ccccc3)CC2)c1	-0.9115	45.5	-6.079	6.513
CNC(=O)CS(=O)(=O)C1CCN(S(=O)(=O)c2cccnc2)CC1	0.3127	13.45	4.059	0
Cc1ccc(Sc2ccc(CN3CCC4(CC3)NCCNC4=O)o2)cc1	0.2283	-9.947	-29.09	2.532
CCCc1cc(=O)[nH]c2nnc(SCC(=O)OC)n12	5.004	21.73	-2.439	4.082

4 of the entries, repeated:

{"smiles": "CC(C)OCCN(C)CC(c1cccs1)N1CCOCC1", "stereo": "centres undefined", "MtTrpRS": 4.124, "Leishmania in macrophages": -11.57, "Pks13 thioesterase": 0.8132, "TcHisRS": 2.02}
{"smiles": "Cc1nn(C)cc1-c1cc(C(=O)N2CCc3ncc(Cl)cc3C2)no1", "MtTrpRS": -4.285, "Leishmania in macrophages": 19.36, "Pks13 thioesterase": 4.47, "TcHisRS": 8.333}
{"smiles": "O=C(O)C(F)(F)F.O=C(O)C(F)(F)F.[H][C@@]12CCN(Cc3cccc(C)n3)[C@]1([H])CC[C@@H](C(=O)Nc1cnccn1)O2", "Leishmania in macrophages": 32.33}
{"smiles": "Cc1ccc(Sc2ccc(CN3CCC4(CC3)NCCNC4=O)o2)cc1", "MtTrpRS": 0.2283, "Leishmania in macrophages": -9.947, "Pks13 thioesterase": -29.09, "TcHisRS": 2.532}